In PMC7295941:
Results are given in words; binding and its absence hold for the method and conditions named. In cells and extracts the contact can be indirect. Some results given as binding are weak or reduced against the parent protein; the word gives no strength.

Sequences of proteins named here, by UniProt entry; tags and fusion partners are left off.
UniProt Q14680: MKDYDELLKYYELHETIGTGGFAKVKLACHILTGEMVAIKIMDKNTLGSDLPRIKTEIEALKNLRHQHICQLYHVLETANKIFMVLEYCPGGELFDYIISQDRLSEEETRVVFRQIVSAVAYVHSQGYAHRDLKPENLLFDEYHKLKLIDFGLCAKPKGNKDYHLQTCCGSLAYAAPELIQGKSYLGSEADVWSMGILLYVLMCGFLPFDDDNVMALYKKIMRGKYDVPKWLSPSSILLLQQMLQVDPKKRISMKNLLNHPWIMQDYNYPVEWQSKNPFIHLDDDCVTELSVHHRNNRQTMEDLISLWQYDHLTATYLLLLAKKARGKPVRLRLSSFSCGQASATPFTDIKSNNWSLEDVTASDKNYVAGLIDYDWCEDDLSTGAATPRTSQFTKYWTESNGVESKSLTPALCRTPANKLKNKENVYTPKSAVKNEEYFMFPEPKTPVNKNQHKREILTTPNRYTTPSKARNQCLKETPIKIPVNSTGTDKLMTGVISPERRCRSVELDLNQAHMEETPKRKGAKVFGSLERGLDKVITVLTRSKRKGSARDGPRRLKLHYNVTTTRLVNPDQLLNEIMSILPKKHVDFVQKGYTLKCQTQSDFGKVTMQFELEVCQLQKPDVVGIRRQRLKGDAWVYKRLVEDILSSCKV

Target: T1, Forkhead box M1 (UniProt Q08050)
T1 sequence: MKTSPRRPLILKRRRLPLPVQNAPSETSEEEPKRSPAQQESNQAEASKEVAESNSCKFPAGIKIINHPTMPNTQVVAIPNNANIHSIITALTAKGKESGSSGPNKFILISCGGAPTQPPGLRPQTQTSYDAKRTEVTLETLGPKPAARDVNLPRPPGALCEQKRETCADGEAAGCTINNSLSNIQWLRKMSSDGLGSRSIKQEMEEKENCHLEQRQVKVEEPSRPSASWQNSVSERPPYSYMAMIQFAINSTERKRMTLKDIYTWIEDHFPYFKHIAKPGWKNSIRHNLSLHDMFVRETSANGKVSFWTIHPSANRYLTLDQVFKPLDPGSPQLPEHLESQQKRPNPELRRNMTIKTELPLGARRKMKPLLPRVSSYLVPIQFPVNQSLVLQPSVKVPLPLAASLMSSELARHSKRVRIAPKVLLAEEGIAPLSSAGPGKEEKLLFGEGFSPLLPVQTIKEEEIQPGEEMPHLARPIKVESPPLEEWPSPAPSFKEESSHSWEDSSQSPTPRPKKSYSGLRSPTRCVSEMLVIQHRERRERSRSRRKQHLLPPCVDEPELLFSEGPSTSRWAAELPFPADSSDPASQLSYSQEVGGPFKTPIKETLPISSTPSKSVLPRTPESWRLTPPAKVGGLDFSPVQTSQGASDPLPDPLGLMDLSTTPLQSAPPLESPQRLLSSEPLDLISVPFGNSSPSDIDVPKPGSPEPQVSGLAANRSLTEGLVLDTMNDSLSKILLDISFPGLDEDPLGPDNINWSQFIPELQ
Experiment: co-IP; extracts of MDA-MB-231/DOC-FoxM1TF cells incubated with or without the indicated drugs (DOC, MA) for 24 h; extracts with antibody at 4°C for 24 h, then protein A-Sepharose 4B or beads at 4°C for 4 h; western blot

binding: binds
Substance: Maternal embryonic leucine-zipper kinase (from UniProt Q14680 1-651) (enzyme)
